Results from PMC4678830.
These are yes or no findings as the source states them, for the method shown. Blank lines part the entries; values can stand above or below the binder they belong to.

How the values were obtained:
[1] = target: SNM1B core MBL-β-CASP domain (aa 1–335), S330F (human) (UniProt Q9H816); test: SEC; Superdex S200 HR 16/60 in GF buffer (10 mM HEPES, pH 7.5, 300 mM NaCl, 0.5 mM TCEP, 5% glycerol), 1.2 ml/min; last step of the purification; both purified
[2] = target: SNM1A core MBL-β-CASP domain (aa 676–1040) (human) (UniProt Q6PJP8); test: as above

binding [1]: no binding
B1: SNM1B core MBL-β-CASP domain (aa 1–335), S330F (domain or fragment, UniProt Q9H816 1-335)
chain: SMMNGVLIPHTPIAVDFWSLRRAGTARLFFLSHMHSDHTVGLSSTWARPLYCSPITAHLLHRHLQVSKQWIQALEVGESHVLPLDEIGQETMTVTLLDANHCPGSVMFLFEGYFGTILYTGDFRYTPSMLKEPALTLGKQIHTLYLDNTNCNPALVLPSRQEAAHQIVQLIRKHPQHNIKIGLYSLGKESLLEQLALEFQTWVVLSPRRLELVQLLGLADVFTVEEKAGRIHAVDHMEICHSNMLRWNQTHPTIAILPTSRKIHSSHPDIHVIPYSDHSSYSELRAFVAALKPCQVVPIVSRRPCGGFQDSLSPRISVPLIPDSVQQYMSSFSRKPS

binding [2]: no binding
B2: SNM1A core MBL-β-CASP domain (aa 676–1040) (domain or fragment, UniProt Q6PJP8 676-1040)
chain: SMAHGGLQRGNKKIPESSNVGGSRKKTCPFYKKIPGTGFTVDAFQYGVVEGCTAYFLTHFHSDHYAGLSKHFTFPVYCSEITGNLLKNKLHVQEQYIHPLPLDTECIVNGVKVVLLDANHCPGAVMILFYLPNGTVILHTGDFRADPSMERSLLADQKVHMLYLDTTYCSPEYTFPSQQEVIRFAINTAFEAVTLNPHALVVCGTYSIGKEKVFLAIADVLGSKVGMSQEKYKTLQCLNIPEINSLITTDMCSSLVHLLPMMQINFKGLQSHLKKCGGKYNQILAFRPTGWTHSNKFTRIADVIPQTKGNISIYGIPYSEHSSYLEMKRFVQWLKPQKIIPTVNVGTWKSRSTMEKYFREWKLEAGY
